Assay results: the supplement of paper PMC11348887
Where a name gives a salt, the structure may show the parent alone. The list shows a part of the results. Small differences around the control level are noise.

The compounds below were run on hPSC-derived cortical neurons (WA09) (assay: nucleus area z-score vs screen plate; higher = larger nuclei (more mature)). Conditions: 5 µM; treatment: days 7-14 after plating, readout day 21.
With `O=c1cc(-c2ccccc2)oc2cc(O)cc(O)c12` [Chrysin] the nucleus area z-score was -0.318. `CC1(C)S[C@@H]2[C@H](NC(=O)[C@H](NC(=O)N3CCNC3=O)c3ccccc3)C(=O)N2[C@H]1C(=O)O` [Azlocillin sodium salt] was tested, and the nucleus area z-score was -0.7. With `COc1ncc(-c2ccc3nccc(-c4ccnnc4)c3c2)cc1NS(=O)(=O)c1ccc(F)cc1F` the nucleus area z-score was -8.34. `COc1ccc(Cn2ccc3ccc(C(=O)NO)cc32)cc1` gave a nucleus area z-score of -0.0959. `Cc1[nH]c(/C=C2\C(=O)Nc3ccc(S(=O)(=O)N(C)c4cccc(Cl)c4)cc32)c(C)c1C(=O)N1CCN(C)CC1` showed a nucleus area z-score of 1.22. `CC(C)CCN1c2nc(Nc3cc(F)c(O)c(F)c3)ncc2N(C)C(=O)C1C` (stereo not drawn) was tested, and the nucleus area z-score was 1.07. In the case of `CCCCCCOC(=O)NC(=N)c1ccc(NCc2nc3cc(C(=O)N(CCC(=O)OCC)c4ccccn4)ccc3n2C)cc1` [Dabigatran Etexilate], the nucleus area z-score is reported as 0.822. `CCN(c1cc(C#CCN2CCOCC2)cc(C(=O)NCc2c(C)cc(C)[nH]c2=O)c1C)[C@H]1CC[C@H](N(C)CCOC)CC1` was tested, and the nucleus area z-score was 1.27. `O=C(Oc1cc(S(=O)(=O)c2ccccc2)ccc1[N+](=O)[O-])c1ccc(Cl)cc1` was tested, and the nucleus area z-score was 2.49. In the case of `CC(C)C[C@H](NC(=O)CNC(=O)c1cc(Cl)ccc1Cl)B(O)O`, the nucleus area z-score is reported as -16.6. With `C[C@H](N)[C@H](O)c1cccc(O)c1` [Metaraminol Bitartrate] the nucleus area z-score was 0.394. With `CC1(C)[C@H](C(=O)O)N2C(=O)C[C@H]2S1(=O)=O` [Sulbactam] the nucleus area z-score was 0.0954. Work on `COC(=O)c1ccc([C@H]2c3[nH]c4ccccc4c3C[C@H](C(=O)OC)N2C(=O)CCl)cc1` yielded a nucleus area z-score of -5.42. In the case of `C=C1/C(=C\C=C2/CCC[C@]3(C)[C@@H]([C@H](C)CCCC(C)C)CC[C@@H]23)C[C@@H](O)C[C@@H]1O` [Alfacalcidol], the nucleus area z-score is reported as 0.768. Work on `O=c1ccc2ccc(O)c(O)c2o1` [Daphnetin] yielded a nucleus area z-score of -3.77. `CCCCN1CCCC[C@H]1C(=O)Nc1c(C)cccc1C` [Levobupivacaine HCl] was tested, and the nucleus area z-score was 0.379. In the case of `O=C(Nc1ccccc1-c1cn2c(CN3CCNCC3)csc2n1)c1cnc2ccccc2n1`, the nucleus area z-score is reported as -6.02. `N#CC[C@H](C1CCCC1)n1cc(-c2ncnc3[nH]ccc23)cn1` was tested, and the nucleus area z-score was 1.17. `CCCNC(C)C(=O)Nc1ccccc1C` (stereo not drawn) [Prilocaine] was tested, and the nucleus area z-score was 0.137. For `CNc1nc(-c2ccc3c(N)n[nH]c3c2)cc(N2C[C@@H](C(=O)NC3CCCCC3)CC[C@H]2C)n1`, the nucleus area z-score was -0.183. `COCC(=O)NC/C=C/c1ccc2ncnc(Nc3ccc(Oc4ccc(C)nc4)c(C)c3)c2c1` gave a nucleus area z-score of 1.44. With `Clc1ccc2c(c1)CCc1cccnc1C2=C1CCNCC1` [Desloratadine] the nucleus area z-score was -0.234. Compound `CN(C)C(=N)NC(=N)N` [Metformin HCl] has a nucleus area z-score of 0.2. `COc1ccc(CNCc2cccc3ccccc23)cc1` gave a nucleus area z-score of -0.349. Work on `CC(C)OC(=O)C(C)(C)Oc1ccc(C(=O)c2ccc(Cl)cc2)cc1` [Fenofibrate] yielded a nucleus area z-score of 0.0214. With `Cn1cc(-c2ccc3c(c2)CCN3C(=O)Cc2cccc(C(F)(F)F)c2)c2c(N)ncnc21` the nucleus area z-score was 2.83. With `Cc1cn([C@H]2C=C[C@@H](CO)O2)c(=O)[nH]c1=O` [Stavudine (d4T)] the nucleus area z-score was 0.917. With `COc1cc2ncnc(Nc3cccc(Cl)c3)c2cc1OC` [AG-1478 (Tyrphostin AG-1478)] the nucleus area z-score was 0.325. `CC(C)N(CCC(=O)c1ccc2ccccc2c1)Cc1ccccc1` gave a nucleus area z-score of -10.7. Compound `COCCCN1CCC(NC(=O)c2cc(Cl)c(N)c3c2OCC3)CC1` [Prucalopride Succinat] has a nucleus area z-score of 0.783. `N=C(N)Nc1ccc(C(=O)Oc2ccc3cc(C(=N)N)ccc3c2)cc1` [Nafamostat Mesylate] showed a nucleus area z-score of 0.869. `O=C1C2CC3CC1CC(O)(C3)C2` [Idramantone] showed a nucleus area z-score of 0.678. `CSc1nc2cc(Cl)c(Oc3cccc(Cl)c3Cl)cc2[nH]1` [Triclabendazole] showed a nucleus area z-score of 1.74. Compound `O=C(c1ccccc1)c1ccc2n1CCC2C(=O)O` (stereo not drawn) [Ketorolac] has a nucleus area z-score of 0.287. For `Cc1cnc(-c2cc(N3CCN(C(=O)CCS(C)(=O)=O)CC3)ncc2Cl)c(C)c1`, the nucleus area z-score was 0.3. Work on `CC(C)OC(=O)C1=CN(C(=O)c2ccc(F)c(F)c2)CC(C)(C)c2c1[nH]c1ccccc21` yielded a nucleus area z-score of 0.379. With `OCCn1cc(-c2cnc3nnn(Cc4ccc5ncccc5c4)c3n2)cn1` the nucleus area z-score was 0.121. With `O=C(O)C1=CO[C@@H](O[C@@H]2O[C@H](CO)[C@@H](O)[C@H](O)[C@H]2O)[C@@H]2C(CO)=CC[C@H]12` [Geniposidic acid] the nucleus area z-score was 0.105. With `NCC[C@H](O)C(=O)N[C@@H]1C[C@H](N)[C@@H](O[C@H]2O[C@H](CN)[C@@H](O)[C@H](O)[C@H]2O)[C@H](O)[C@H]1O[C@H]1O[C@H](CO)[C@@H](O)[C@H](N)[C@H]1O` [Amikacin disulfate] the nucleus area z-score was -0.959.

What follows are compounds tested on hPSC-derived cortical neurons (WA09) (assay: total neurite length per nucleus (MAP2) z-score; higher = more neurite growth). Conditions: 5 µM; treatment: days 7-14 after plating, readout day 21.
With `O=c1cc(-c2ccccc2)oc2cc(O)cc(O)c12` [Chrysin] the “total neurite length per nucleus (z-score)” value was 0.399. `CC1(C)S[C@@H]2[C@H](NC(=O)[C@H](NC(=O)N3CCNC3=O)c3ccccc3)C(=O)N2[C@H]1C(=O)O` [Azlocillin sodium salt] was tested, and the “total neurite length per nucleus (z-score)” value was 1.44. `COc1ncc(-c2ccc3nccc(-c4ccnnc4)c3c2)cc1NS(=O)(=O)c1ccc(F)cc1F` was tested, and the “total neurite length per nucleus (z-score)” value was -3.62. `COc1ccc(Cn2ccc3ccc(C(=O)NO)cc32)cc1` was tested, and the “total neurite length per nucleus (z-score)” value was 0.202. In the case of `Cc1[nH]c(/C=C2\C(=O)Nc3ccc(S(=O)(=O)N(C)c4cccc(Cl)c4)cc32)c(C)c1C(=O)N1CCN(C)CC1`, the “total neurite length per nucleus (z-score)” value is reported as 1.82. In the case of `CC(C)CCN1c2nc(Nc3cc(F)c(O)c(F)c3)ncc2N(C)C(=O)C1C` (stereo not drawn), the “total neurite length per nucleus (z-score)” value is reported as 0.724. `CCCCCCOC(=O)NC(=N)c1ccc(NCc2nc3cc(C(=O)N(CCC(=O)OCC)c4ccccn4)ccc3n2C)cc1` [Dabigatran Etexilate] was tested, and the “total neurite length per nucleus (z-score)” value was -0.289. In the case of `CCN(c1cc(C#CCN2CCOCC2)cc(C(=O)NCc2c(C)cc(C)[nH]c2=O)c1C)[C@H]1CC[C@H](N(C)CCOC)CC1`, the “total neurite length per nucleus (z-score)” value is reported as 1.21. `O=C(Oc1cc(S(=O)(=O)c2ccccc2)ccc1[N+](=O)[O-])c1ccc(Cl)cc1` was tested, and the “total neurite length per nucleus (z-score)” value was -0.181. `CC(C)C[C@H](NC(=O)CNC(=O)c1cc(Cl)ccc1Cl)B(O)O` was tested, and the “total neurite length per nucleus (z-score)” value was -5.34. For `C[C@H](N)[C@H](O)c1cccc(O)c1` [Metaraminol Bitartrate], the “total neurite length per nucleus (z-score)” value was 0.671. With `CC1(C)[C@H](C(=O)O)N2C(=O)C[C@H]2S1(=O)=O` [Sulbactam] the “total neurite length per nucleus (z-score)” value was -0.429. For `COC(=O)c1ccc([C@H]2c3[nH]c4ccccc4c3C[C@H](C(=O)OC)N2C(=O)CCl)cc1`, the “total neurite length per nucleus (z-score)” value was -3.07. For `C=C1/C(=C\C=C2/CCC[C@]3(C)[C@@H]([C@H](C)CCCC(C)C)CC[C@@H]23)C[C@@H](O)C[C@@H]1O` [Alfacalcidol], the “total neurite length per nucleus (z-score)” value was -0.965. In the case of `O=c1ccc2ccc(O)c(O)c2o1` [Daphnetin], the “total neurite length per nucleus (z-score)” value is reported as -0.673. `CCCCN1CCCC[C@H]1C(=O)Nc1c(C)cccc1C` [Levobupivacaine HCl] was tested, and the “total neurite length per nucleus (z-score)” value was 0.378. For `O=C(Nc1ccccc1-c1cn2c(CN3CCNCC3)csc2n1)c1cnc2ccccc2n1`, the “total neurite length per nucleus (z-score)” value was -2.16. With `N#CC[C@H](C1CCCC1)n1cc(-c2ncnc3[nH]ccc23)cn1` the “total neurite length per nucleus (z-score)” value was 0.144. With `CCCNC(C)C(=O)Nc1ccccc1C` (stereo not drawn) [Prilocaine] the “total neurite length per nucleus (z-score)” value was 0.598. For `CNc1nc(-c2ccc3c(N)n[nH]c3c2)cc(N2C[C@@H](C(=O)NC3CCCCC3)CC[C@H]2C)n1`, the “total neurite length per nucleus (z-score)” value was -0.317. In the case of `COCC(=O)NC/C=C/c1ccc2ncnc(Nc3ccc(Oc4ccc(C)nc4)c(C)c3)c2c1`, the “total neurite length per nucleus (z-score)” value is reported as -0.637. In the case of `Clc1ccc2c(c1)CCc1cccnc1C2=C1CCNCC1` [Desloratadine], the “total neurite length per nucleus (z-score)” value is reported as 0.393. For `CN(C)C(=N)NC(=N)N` [Metformin HCl], the “total neurite length per nucleus (z-score)” value was 0.292. `COc1ccc(CNCc2cccc3ccccc23)cc1` was tested, and the “total neurite length per nucleus (z-score)” value was -0.355. `CC(C)OC(=O)C(C)(C)Oc1ccc(C(=O)c2ccc(Cl)cc2)cc1` [Fenofibrate] was tested, and the “total neurite length per nucleus (z-score)” value was -0.133. For `Cn1cc(-c2ccc3c(c2)CCN3C(=O)Cc2cccc(C(F)(F)F)c2)c2c(N)ncnc21`, the “total neurite length per nucleus (z-score)” value was 1.04. With `Cc1cn([C@H]2C=C[C@@H](CO)O2)c(=O)[nH]c1=O` [Stavudine (d4T)] the “total neurite length per nucleus (z-score)” value was 0.6. With `COc1cc2ncnc(Nc3cccc(Cl)c3)c2cc1OC` [AG-1478 (Tyrphostin AG-1478)] the “total neurite length per nucleus (z-score)” value was 0.0458. With `CC(C)N(CCC(=O)c1ccc2ccccc2c1)Cc1ccccc1` the “total neurite length per nucleus (z-score)” value was -3.97. With `COCCCN1CCC(NC(=O)c2cc(Cl)c(N)c3c2OCC3)CC1` [Prucalopride Succinat] the “total neurite length per nucleus (z-score)” value was -0.598. `N=C(N)Nc1ccc(C(=O)Oc2ccc3cc(C(=N)N)ccc3c2)cc1` [Nafamostat Mesylate] was tested, and the “total neurite length per nucleus (z-score)” value was 0.18. With `O=C1C2CC3CC1CC(O)(C3)C2` [Idramantone] the “total neurite length per nucleus (z-score)” value was 0.593. In the case of `CSc1nc2cc(Cl)c(Oc3cccc(Cl)c3Cl)cc2[nH]1` [Triclabendazole], the “total neurite length per nucleus (z-score)” value is reported as 0.191. `O=C(c1ccccc1)c1ccc2n1CCC2C(=O)O` (stereo not drawn) [Ketorolac] was tested, and the “total neurite length per nucleus (z-score)” value was 1.11. For `Cc1cnc(-c2cc(N3CCN(C(=O)CCS(C)(=O)=O)CC3)ncc2Cl)c(C)c1`, the “total neurite length per nucleus (z-score)” value was 0.114. With `CC(C)OC(=O)C1=CN(C(=O)c2ccc(F)c(F)c2)CC(C)(C)c2c1[nH]c1ccccc21` the “total neurite length per nucleus (z-score)” value was 0.516. For `OCCn1cc(-c2cnc3nnn(Cc4ccc5ncccc5c4)c3n2)cn1`, the “total neurite length per nucleus (z-score)” value was 0.7. `O=C(O)C1=CO[C@@H](O[C@@H]2O[C@H](CO)[C@@H](O)[C@H](O)[C@H]2O)[C@@H]2C(CO)=CC[C@H]12` [Geniposidic acid] was tested, and the “total neurite length per nucleus (z-score)” value was 0.0608. For `NCC[C@H](O)C(=O)N[C@@H]1C[C@H](N)[C@@H](O[C@H]2O[C@H](CN)[C@@H](O)[C@H](O)[C@H]2O)[C@H](O)[C@H]1O[C@H]1O[C@H](CO)[C@@H](O)[C@H](N)[C@H]1O` [Amikacin disulfate], the “total neurite length per nucleus (z-score)” value was 0.646.
